In the assay the test system is BDF1 mice, P388 leukemia ip, median survival T/C. The experiment in a line: NCI In Vivo Anticancer Drug Screen. Data for tumor model P388 Leukemia (intraperitoneal) in B6D2F1 (BDF1) mice. To be noted: T/C endpoint: median survival time, higher T/C = longer survival. The procedure:
The antitumor activity of compounds was measured in mice bearing transplantable tumors. Survival or tumor size were measured and the results are expressed as the measurement made in the treated group (T) divided by the measurement made in the vehicle treated control group (C). The tumor model used in this assay is P388 Leukemia (intraperitoneal) in B6D2F1 (BDF1) mice

Where [1] appears, read: dose: 6.25 mg/kg/injection, schedule: Q04DX003 (ip), vehicle: saline.
[2] abbreviates: dose: 12.5 mg/kg/injection, schedule: Q04DX003 (ip), vehicle: saline.
Setting [3] is: dose: 200.0 mg/kg/injection, schedule: Q04DX003 (ip), vehicle: saline.
The mark [4] stands for this setting: dose: 400.0 mg/kg/injection, schedule: Q04DX003 (ip), vehicle: saline.
The mark [5] stands for this setting: dose: 400.0 mg/kg/injection, schedule: Q01DX009 (ip), vehicle: saline.

In PubChem BioAssay AID328 (DTP/NCI, 2004) one finds survivor count and T/C data, which are given here for 16 compounds.

The list is a part of this screen's results and no random one: it is rich in T/C values a quarter to a half above the control, in often repeated tests (any T/C) and in doses without a T/C. Other doses and runs of a compound stand elsewhere. T/C is the treated group as % of the vehicle group. Some entries give survivors of the animals treated and no T/C: the source holds a T/C of zero for them, seemingly a mark for toxic or unscored doses. Some doses without a T/C left all or most animals alive at the check, yet need not have been tolerated: the source hardly ever lists a survival T/C far under the control, and the zero likely stands for such cases as well. Counts of survivors are from the toxicity check (mostly the fifth day) where no day follows; animals may have died later. Schedule codes are those of the source, taken here to give the interval after Q, in days (D) or hours (H), and the number of doses after X. Some doses were run more than once; their values stand side by side, smallest first. Where survival is the endpoint, this PubChem deposit counts one and a half times the control or more as active, and values a quarter to a half above the control carry no call in these data; other NCI protocols may use other cut-offs. Some T/C values carry the count of animals alive at the toxicity check (mostly the fifth day); without a count, all were alive then.

With `COc1ccc2[nH]c3c(C)c4ccncc4c(C)c3c2c1`, the survivor count reads like this: (dose: 0.12 mg/kg/injection, schedule: Q01DX009 (ip), vehicle: water) 0 of 10; (dose: 0.25 mg/kg/injection, schedule: Q01DX009 (ip), vehicle: water) 0 of 10; (dose: 0.5 mg/kg/injection, schedule: Q01DX009 (ip), vehicle: water) 0 of 10; (dose: 1.0 mg/kg/injection, schedule: Q01DX009 (ip), vehicle: water) 0 of 10; (dose: 2.0 mg/kg/injection, schedule: Q01DX009 (ip), vehicle: water) 0 of 10; (dose: 2.34 mg/kg/injection, schedule: Q01DX009 (ip), vehicle: water) 8 of 10. The survivor count is recorded as 10 of 10 (dose: 37.5 mg/kg/injection, schedule: Q01DX009 (ip), vehicle: other); 10 of 10 (dose: 37.5 mg/kg/injection, schedule: Q04DX003 (ip), vehicle: water); 9 of 10 (dose: 75.0 mg/kg/injection, schedule: Q01DX009 (ip), vehicle: other); 10 of 10 (dose: 75.0 mg/kg/injection, schedule: Q04DX003 (ip), vehicle: water); 6 of 10 (dose: 150.0 mg/kg/injection, schedule: Q01DX001 (ip), vehicle: other); 2 of 10 (dose: 150.0 mg/kg/injection, schedule: Q01DX001 (ip), vehicle: water). In addition, the T/C is 133 % of control (dose: 9.37 mg/kg/injection, schedule: Q01DX009 (ip), vehicle: other); 141 % of control (dose: 18.5 mg/kg/injection, schedule: Q04DX003 (ip), vehicle: other); 133 % of control [9 of 10 alive] (dose: 75.0 mg/kg/injection, schedule: Q01DX001 (ip), vehicle: other).

Consider `COc1cc2ccc(CC3NCCc4cc5c(cc43)OCO5)cc2cc1OC` (stereo unspecified), for which the survivor count is, setting by setting: (dose: 200.0 mg/kg/injection, schedule: Q01DX009 (ip), vehicle: other) 4 of 6; (dose: 400.0 mg/kg/injection, schedule: Q04DX003 (ip), vehicle: other) 6 of 6.

Consider `CS(=O)(=O)Nc1ccc(Nc2c3ccccc3nc3cc(N)ccc23)cc1`, for which the survivor count by setting is: (dose: 5.0 mg/kg/injection, schedule: Q01DX009 (ip), vehicle: saline) 6 of 6; (dose: 10.0 mg/kg/injection, schedule: Q01DX009 (ip), vehicle: saline) 5 of 6; (dose: 12.5 mg/kg/injection, schedule: Q04DX003 (ip), vehicle: saline with Tween-80) 6 of 6; (dose: 25.0 mg/kg/injection, schedule: Q04DX003 (ip), vehicle: saline with Tween-80) 3 of 6. The T/C (dose: 6.25 mg/kg/injection, schedule: Q04DX003 (ip), vehicle: saline with Tween-80) is 136 % of control.

For `N=c1ccn2c(n1)OC1C(O)C(COS(=O)OC3C(CO)OC4C3Oc3nc(=N)ccn34)OC12` (stereo unspecified), under “dose: 50.0 mg/kg/injection, schedule: Q01DX009 (ip), vehicle: saline with Tween-80”, the T/C was 138 % of control.

Regarding `CC(=O)Nc1cc(NC(C)=O)cc(N(CCO)CCO)c1`, the survivor count runs as follows: (dose: 25.0 mg/kg/injection, schedule: Q01DX009 (ip), vehicle: water) 6 of 6; (dose: 100.0 mg/kg/injection, schedule: Q01DX009 (ip), vehicle: water) 6 of 6; (dose: 200.0 mg/kg/injection, schedule: Q01DX009 (ip), vehicle: water) 6 of 6; (dose: 400.0 mg/kg/injection, schedule: Q01DX009 (ip), vehicle: water) 6 of 6.

In the case of `COC(=O)c1cc([N+](=O)[O-])c(Cl)c([N+](=O)[O-])c1`, where the note is “dose: 100.0 mg/kg/injection, schedule: Q04DX003 (ip), vehicle: Klucel (hydroxypropylcellulose) (HPC)”, the survivor count was 3 of 6.

As to `N#Cc1c(NN)n(C2OC(CO)C(O)C2O)c2ncnc(N)c12` (stereo unspecified), under “dose: 30.0 mg/kg/injection, schedule: Q04DX003 (ip), vehicle: saline”, the T/C was 149 % of control.

As for `CSc1nc(Cl)cc(N2CC2)n1`, the survivor count is, setting by setting: (dose: 1.56 mg/kg/injection, schedule: Q01DX009 (ip), vehicle: saline) 0 of 6; (dose: 5.6 mg/kg/injection, schedule: Q04DX003 (ip), vehicle: saline) 0 of 6; under setting [1], 0 of 6; (dose: 8.4 mg/kg/injection, schedule: Q04DX003 (ip), vehicle: saline) 0 of 6; under setting [2], 3 of 6; (dose: 25.0 mg/kg/injection, schedule: Q04DX003 (ip), vehicle: saline) 1 of 6. Besides, the survivor count runs as follows: (dose: 100.0 mg/kg/injection, schedule: Q04DX003 (ip), vehicle: saline) 0 of 6; under setting [3], 0 of 6; under setting [4], 0 of 6.

For the compound `CCCCCCCCCCCCSC(=N)N`, the survivor count (dose: 1.56 mg/kg/injection, schedule: Q04DX003 (ip), vehicle: saline) is recorded as 0 of 6; the survivor count under setting [1] is reported as 6 of 6; the survivor count under setting [2] is reported as 6 of 6.

For the compound `CC(C)OC(=S)SSC(=S)OC(C)C`, for the setting “dose: 400.0 mg/kg/injection, schedule: Q01DX009 (ip), vehicle: Klucel (hydroxypropylcellulose) (HPC)”, the survivor count was 0 of 6.

For the compound `O=C(CSc1cc(-c2ccc(Cl)cc2)s[s+]1)c1ccc(Cl)cc1`, the T/C under setting [3] is 126 % of control [5 of 6 alive]. The survivor count under setting [5] is on record as 6 of 6; the survivor count under setting [4] is 3 of 6 and 5 of 6.

`Ic1ccccc1C[N+]12CN3CN(CN(C3)C1)C2`: the T/C (dose: 132.0 mg/kg/injection, schedule: Q01DX009 (ip), vehicle: saline with Tween-80) was 130 [5 of 6 alive] and 138 % of control; the T/C (dose: 200.0 mg/kg/injection, schedule: Q01DX009 (ip), vehicle: saline with Tween-80) is reported as 123, 133, 140, 142 % of control; the T/C (dose: 200.0 mg/kg/injection, schedule: Q01DX009 (ip), vehicle: saline) is 145 % of control; the T/C (dose: 265.0 mg/kg/injection, schedule: Q01DX009 (ip), vehicle: saline with Tween-80) is 131 % of control [5 of 6 alive]; the T/C (dose: 300.0 mg/kg/injection, schedule: Q01DX009 (ip), vehicle: saline with Tween-80) is 138 % of control [5 of 6 alive]; the T/C under setting [5] is 130 % of control [4 of 6 alive]. Further, the survivor count (dose: 175.0 mg/kg/injection, schedule: Q01DX009 (ip), vehicle: saline with Tween-80) was 0 of 6; the survivor count (dose: 400.0 mg/kg/injection, schedule: Q01DX009 (ip), vehicle: alcohol) is 0 of 6; the survivor count (dose: 400.0 mg/kg/injection, schedule: Q01DX009 (ip), vehicle: saline with Tween-80) is 0 of 6; the survivor count (dose: 600.0 mg/kg/injection, schedule: Q01DX009 (ip), vehicle: saline with Tween-80) is listed as 0 of 6.

`C[C@H]1C[C@@H]2[C@H]([C@@H](O)C[C@@]3(C)[C@H]2CC[C@]3(O)C(=O)CO)[C@@]2(C)C=CC(=O)C=C12`: the T/C (dose: 100.0 mg/kg/injection, schedule: Q01DX009 (ip), vehicle: saline with Tween-80) was 127 % of control.

On to `CC(=O)N(C)Nc1ccccc1`, for which the survivor count was 5 of 6 (dose: 200.0 mg/kg/injection, schedule: Q04DX003 (ip), vehicle: saline with Tween-80) and 3 of 6 (dose: 400.0 mg/kg/injection, schedule: Q04DX003 (ip), vehicle: saline with Tween-80).

`CCOC(=O)C(=O)CC1=CC=CC2=NC(=O)CCN12`: the T/C (dose: 100.0 mg/kg/injection, schedule: Q01DX001 (ip), vehicle: saline with Tween-80) was 131 % of control. Also, the survivor count (dose: 400.0 mg/kg/injection, schedule: Q01DX001 (ip), vehicle: saline with Tween-80) is reported as 2 of 6.

For `CC1C(=O)OC2CCN3CC4OC4(COC(=O)C(C)(O)C1(C)O)C23` (stereo unspecified), the T/C (dose: 200.0 mg/kg/injection, schedule: Q04DX003 (ip), vehicle: saline sonified) is 125 % of control.
